For this assay, the target named is T1, MdtM, hexahistidine (6-His) fusion protein (unmodified purification protocol) (E. coli) (UniProt P39386).
T1 sequence: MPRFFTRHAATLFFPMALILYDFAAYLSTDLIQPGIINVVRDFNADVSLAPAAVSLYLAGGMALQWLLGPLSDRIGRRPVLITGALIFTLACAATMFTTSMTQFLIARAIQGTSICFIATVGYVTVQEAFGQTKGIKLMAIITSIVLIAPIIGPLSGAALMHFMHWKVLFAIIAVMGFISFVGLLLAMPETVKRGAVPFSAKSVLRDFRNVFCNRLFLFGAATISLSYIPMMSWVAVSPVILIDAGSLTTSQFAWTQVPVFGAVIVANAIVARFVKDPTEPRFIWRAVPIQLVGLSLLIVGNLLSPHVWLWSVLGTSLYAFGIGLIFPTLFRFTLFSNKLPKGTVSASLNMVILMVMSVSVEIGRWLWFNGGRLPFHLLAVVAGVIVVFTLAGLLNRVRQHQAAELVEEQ
The assay is described as follows: affinity purification with mass spectrometry; Ni-NTA IMAC of 6-His MdtM from DDM-solubilised LMG194 membranes, unmodified protocol, 4 °C; ~58 kDa Coomassie band of the eluate cut out, trypsin digest, MALDI TOF/TOF.

Chains of the proteins cited; added tags and fusions are not shown.
UniProt P0A6F5: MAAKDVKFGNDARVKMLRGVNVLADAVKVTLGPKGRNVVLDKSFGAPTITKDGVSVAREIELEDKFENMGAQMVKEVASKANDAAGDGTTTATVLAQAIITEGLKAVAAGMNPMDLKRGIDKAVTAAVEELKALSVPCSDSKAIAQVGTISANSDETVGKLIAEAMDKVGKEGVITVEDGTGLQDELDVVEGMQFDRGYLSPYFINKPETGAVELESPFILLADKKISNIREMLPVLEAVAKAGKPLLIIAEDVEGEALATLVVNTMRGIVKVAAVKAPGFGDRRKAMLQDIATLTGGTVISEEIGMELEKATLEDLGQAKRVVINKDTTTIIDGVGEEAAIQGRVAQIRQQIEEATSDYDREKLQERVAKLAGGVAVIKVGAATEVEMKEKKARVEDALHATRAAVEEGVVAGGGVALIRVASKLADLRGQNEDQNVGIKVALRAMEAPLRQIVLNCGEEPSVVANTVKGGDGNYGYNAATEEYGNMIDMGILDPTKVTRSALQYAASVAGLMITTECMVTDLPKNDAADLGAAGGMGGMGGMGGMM

These are yes or no findings as the source states them, for the method shown. Binding seen in cells or lysates may run through a third protein. These calls come from enrichment with a bait or labelling near it, and not all partners need be listed. Where a sequence is shown, tags or fusion partners need not be part of it.

Regarding “57.3 kDa E. coli GroEL chaperonin protein (from UniProt P0A6F5 1-548)”, the binding result was “binds”.

The record behind these values is article PMC4790320, “Purification of a Multidrug Resistance Transporter for Crystallization Studies” (Antibiotics, 2015).
